Amino acid sequences for entries named in this document (tags omitted).
UniProt P68559: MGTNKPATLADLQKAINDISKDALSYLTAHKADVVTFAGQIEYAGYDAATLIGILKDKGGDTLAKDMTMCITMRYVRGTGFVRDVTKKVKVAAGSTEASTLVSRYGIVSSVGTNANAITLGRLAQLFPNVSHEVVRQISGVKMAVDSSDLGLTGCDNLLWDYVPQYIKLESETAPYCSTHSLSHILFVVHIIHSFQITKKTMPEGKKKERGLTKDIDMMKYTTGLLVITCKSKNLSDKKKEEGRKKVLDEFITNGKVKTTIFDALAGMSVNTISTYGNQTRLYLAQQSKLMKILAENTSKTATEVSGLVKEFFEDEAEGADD
UniProt A0A0F7JIC2: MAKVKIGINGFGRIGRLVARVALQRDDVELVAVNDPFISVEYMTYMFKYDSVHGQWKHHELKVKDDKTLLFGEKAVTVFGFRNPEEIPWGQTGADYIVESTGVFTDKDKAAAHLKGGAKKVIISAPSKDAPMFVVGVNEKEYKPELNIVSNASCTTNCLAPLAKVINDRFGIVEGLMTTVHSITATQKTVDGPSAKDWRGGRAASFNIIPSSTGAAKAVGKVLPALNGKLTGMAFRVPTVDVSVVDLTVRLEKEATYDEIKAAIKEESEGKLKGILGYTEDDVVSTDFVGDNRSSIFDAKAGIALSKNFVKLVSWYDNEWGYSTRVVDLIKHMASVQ

In paper PMC10441990:

Biological target: RSV CP-GFP (rice stripe virus coat protein fused to GFP) (rice stripe virus) (UniProt P68559)
Assay: affinity purification with mass spectrometry; CP-GFP expressed in N. benthamiana leaves as bait, total proteins incubated with GFP-Trap beads, eluate on SDS-PAGE, additional bands analysed by LC-MS/MS; non-fused GFP in parallel

For “cytosolic glyceraldehyde-3-phosphate dehydrogenase 2 of N. benthamiana (endogenous) (from UniProt A0A0F7JIC2 1-337)”, the binding was “binds”.

Results are given in words; binding and its absence hold for the method and conditions named. In cells and extracts the contact can be indirect. A yes stands for co-enrichment or nearness to the bait. Other partners may have been found.
